These are yes or no findings as the source states them, for the method shown. Binding seen in cells or lysates may run through a third protein. Some results given as binding are weak or reduced against the parent protein; the word gives no strength.
Target: T1, LYNX2 protein (LYPD1) (mouse (endogenous in amygdala)) (UniProt Q8BLC3)
T1 sequence: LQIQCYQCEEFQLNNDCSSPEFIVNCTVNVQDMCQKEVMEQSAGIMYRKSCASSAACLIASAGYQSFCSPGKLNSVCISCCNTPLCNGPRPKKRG
Test: co-IP; Dynabeads A with rabbit anti-lypd1 (LYNX2) antibody; BLA homogenates (one sample whole brain) of WT mice at 13 mg/mL in 50 mM Tris, 150 mM NaCl, 0.75% Triton-X 100, protease inhibitors; 3 days at RT; Western blot with anti-α7 nAChR antibody; Lynx2KO extracts as negative control

The chains behind the UniProt entries cited, without tags or fusion partners. Residues count along the entry.
UniProt P49582, residues 23-502: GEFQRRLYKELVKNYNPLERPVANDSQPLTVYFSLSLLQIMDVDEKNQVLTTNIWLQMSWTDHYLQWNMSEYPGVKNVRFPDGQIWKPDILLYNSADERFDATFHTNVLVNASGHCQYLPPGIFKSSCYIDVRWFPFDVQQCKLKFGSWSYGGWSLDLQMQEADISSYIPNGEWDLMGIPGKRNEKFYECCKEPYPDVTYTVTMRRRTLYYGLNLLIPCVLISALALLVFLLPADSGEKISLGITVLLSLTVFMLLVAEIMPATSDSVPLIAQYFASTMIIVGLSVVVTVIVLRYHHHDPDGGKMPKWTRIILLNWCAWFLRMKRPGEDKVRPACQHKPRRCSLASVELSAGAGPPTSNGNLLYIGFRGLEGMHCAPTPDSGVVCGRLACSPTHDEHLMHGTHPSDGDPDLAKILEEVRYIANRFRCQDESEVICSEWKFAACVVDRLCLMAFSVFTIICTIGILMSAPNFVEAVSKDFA

α7 nicotinic acetylcholine receptor subunit (from UniProt P49582 23-502)
binding: binds
